The M2OR odorant receptor database
This is a selection; strong and weak results do not stand in their true shares. The calls were merged from several studies; some rest on single wells. The list shows a part of the results.

Key:
Settings in all cases: stereoisomer not certain
OR5T2 [1] = system: T1, OR5T2
T1 sequence (whole entry): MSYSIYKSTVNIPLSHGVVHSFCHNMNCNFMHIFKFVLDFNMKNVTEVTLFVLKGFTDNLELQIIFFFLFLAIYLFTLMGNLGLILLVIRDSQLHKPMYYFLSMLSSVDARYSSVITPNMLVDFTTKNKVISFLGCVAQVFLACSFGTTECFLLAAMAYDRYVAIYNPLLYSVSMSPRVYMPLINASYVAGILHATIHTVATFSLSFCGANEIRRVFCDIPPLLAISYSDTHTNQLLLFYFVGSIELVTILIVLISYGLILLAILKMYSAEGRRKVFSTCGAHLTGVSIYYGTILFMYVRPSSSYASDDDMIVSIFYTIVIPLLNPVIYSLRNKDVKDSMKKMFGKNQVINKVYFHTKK
Outline: (§1)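 Transient luciferase assays in mammalian cell lines were common, though methods varied by source. The values come from published papers and their supplementary material, with extra details from the original authors when needed. Responsive refers to a measured signal the original authors judged statistically different from baseline, and non-responsive (inactive) to the remainder.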

OR5T2 [2] = system: T2, OR5T2; remark: listed apart in the source
T2 sequence (whole entry): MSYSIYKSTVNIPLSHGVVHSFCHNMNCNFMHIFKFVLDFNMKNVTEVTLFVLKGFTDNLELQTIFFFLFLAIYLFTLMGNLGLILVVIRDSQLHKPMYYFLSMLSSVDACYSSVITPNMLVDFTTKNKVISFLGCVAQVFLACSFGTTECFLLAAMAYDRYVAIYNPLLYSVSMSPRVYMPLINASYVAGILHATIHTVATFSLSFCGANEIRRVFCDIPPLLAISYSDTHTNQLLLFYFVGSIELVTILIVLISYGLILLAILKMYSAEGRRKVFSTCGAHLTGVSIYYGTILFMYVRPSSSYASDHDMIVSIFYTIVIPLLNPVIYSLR
Outline: as §1

OR5T3 = system: T3, OR5T3
T3 sequence (whole entry): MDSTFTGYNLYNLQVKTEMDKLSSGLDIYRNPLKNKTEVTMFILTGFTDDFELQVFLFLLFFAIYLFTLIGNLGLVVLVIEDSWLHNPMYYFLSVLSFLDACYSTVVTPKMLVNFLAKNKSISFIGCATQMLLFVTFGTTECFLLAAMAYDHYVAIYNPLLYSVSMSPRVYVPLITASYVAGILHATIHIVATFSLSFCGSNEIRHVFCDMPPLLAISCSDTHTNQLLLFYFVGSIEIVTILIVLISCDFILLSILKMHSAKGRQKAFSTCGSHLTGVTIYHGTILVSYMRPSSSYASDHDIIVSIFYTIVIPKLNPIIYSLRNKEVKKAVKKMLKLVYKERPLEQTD
Outline: as §1

OR5V1 (Homo sapiens) = biological target: T4, OR5V1 (Homo sapiens) (UniProt Q9UGF6)
T4 sequence (whole entry): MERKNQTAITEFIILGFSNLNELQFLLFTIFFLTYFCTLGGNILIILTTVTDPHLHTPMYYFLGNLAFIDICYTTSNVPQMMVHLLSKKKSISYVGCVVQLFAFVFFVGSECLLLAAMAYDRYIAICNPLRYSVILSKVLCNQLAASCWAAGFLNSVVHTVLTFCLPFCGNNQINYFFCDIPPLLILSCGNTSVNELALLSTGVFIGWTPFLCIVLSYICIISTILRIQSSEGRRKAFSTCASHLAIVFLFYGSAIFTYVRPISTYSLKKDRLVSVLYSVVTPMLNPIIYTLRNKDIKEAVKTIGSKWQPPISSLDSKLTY
Outline: as §1

OR5W2 = system: T5, OR5W2
T5 sequence (whole entry): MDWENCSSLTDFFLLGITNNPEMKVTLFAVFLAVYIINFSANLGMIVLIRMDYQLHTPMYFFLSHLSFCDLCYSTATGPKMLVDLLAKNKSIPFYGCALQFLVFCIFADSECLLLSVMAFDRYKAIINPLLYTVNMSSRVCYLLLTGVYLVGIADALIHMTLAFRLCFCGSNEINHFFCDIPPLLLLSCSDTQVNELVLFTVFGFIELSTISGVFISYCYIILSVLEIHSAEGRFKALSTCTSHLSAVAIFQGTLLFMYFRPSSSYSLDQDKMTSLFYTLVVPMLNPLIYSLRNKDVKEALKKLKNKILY
Outline: as §1

OR6A2 (Homo sapiens) = biological target: T6, OR6A2 (Homo sapiens) (UniProt O95222)
T6 sequence (whole entry): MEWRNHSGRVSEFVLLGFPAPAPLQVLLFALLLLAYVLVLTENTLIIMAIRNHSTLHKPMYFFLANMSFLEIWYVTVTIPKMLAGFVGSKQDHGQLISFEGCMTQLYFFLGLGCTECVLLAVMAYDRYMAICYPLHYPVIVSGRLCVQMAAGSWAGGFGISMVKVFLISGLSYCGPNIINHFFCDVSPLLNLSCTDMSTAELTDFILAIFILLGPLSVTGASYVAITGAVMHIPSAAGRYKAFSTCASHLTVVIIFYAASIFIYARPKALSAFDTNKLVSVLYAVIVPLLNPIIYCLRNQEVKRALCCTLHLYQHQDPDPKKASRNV
Outline: as §1

OR6B1 = system: T7, OR6B1
T7 sequence (whole entry): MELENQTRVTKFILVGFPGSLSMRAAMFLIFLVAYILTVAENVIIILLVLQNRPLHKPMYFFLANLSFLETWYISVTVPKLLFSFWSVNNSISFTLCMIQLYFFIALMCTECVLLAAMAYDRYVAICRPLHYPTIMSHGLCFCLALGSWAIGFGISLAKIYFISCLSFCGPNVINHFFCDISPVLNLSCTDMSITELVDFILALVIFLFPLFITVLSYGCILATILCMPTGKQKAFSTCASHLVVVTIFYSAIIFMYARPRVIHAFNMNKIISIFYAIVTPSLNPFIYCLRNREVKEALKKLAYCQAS
Outline: as §1

OR6B2 = system: T8, OR6B2
T8 sequence (whole entry): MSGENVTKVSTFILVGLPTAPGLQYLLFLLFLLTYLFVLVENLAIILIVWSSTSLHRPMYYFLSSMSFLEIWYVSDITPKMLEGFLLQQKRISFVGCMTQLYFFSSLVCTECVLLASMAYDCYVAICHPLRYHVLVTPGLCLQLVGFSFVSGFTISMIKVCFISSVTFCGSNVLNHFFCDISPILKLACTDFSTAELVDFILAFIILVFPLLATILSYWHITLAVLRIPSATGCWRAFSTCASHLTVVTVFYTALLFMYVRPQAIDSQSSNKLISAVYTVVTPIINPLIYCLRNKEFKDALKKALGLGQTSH
Outline: as §1

OR6B3 = system: T9, OR6B3
T9 sequence (whole entry): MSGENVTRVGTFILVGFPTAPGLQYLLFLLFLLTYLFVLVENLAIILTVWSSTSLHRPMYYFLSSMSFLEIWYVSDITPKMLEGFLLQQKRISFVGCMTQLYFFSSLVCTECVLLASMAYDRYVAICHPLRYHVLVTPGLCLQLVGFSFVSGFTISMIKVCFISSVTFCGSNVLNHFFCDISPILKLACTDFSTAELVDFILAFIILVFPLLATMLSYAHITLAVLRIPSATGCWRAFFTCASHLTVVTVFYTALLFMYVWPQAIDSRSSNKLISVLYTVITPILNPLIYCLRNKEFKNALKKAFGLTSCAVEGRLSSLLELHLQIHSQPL
Outline: as §1

OR6C1 = system: T10, OR6C1
T10 sequence (whole entry): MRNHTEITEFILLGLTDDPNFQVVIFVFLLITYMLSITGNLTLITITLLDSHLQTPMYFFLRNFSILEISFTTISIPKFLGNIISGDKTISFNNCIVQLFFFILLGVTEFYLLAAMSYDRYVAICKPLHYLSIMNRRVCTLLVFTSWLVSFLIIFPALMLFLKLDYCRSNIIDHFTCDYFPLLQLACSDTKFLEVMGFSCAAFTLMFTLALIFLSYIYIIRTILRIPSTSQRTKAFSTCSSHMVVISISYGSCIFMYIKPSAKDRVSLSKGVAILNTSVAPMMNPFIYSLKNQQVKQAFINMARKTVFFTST
Outline: as §1

Measured: odorant receptor agonist call;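 further: active if original authors judged signal statistically different from baseline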

CS
inactive: OR5T2 [1] | OR5T2 [2] | OR5T3 | OR5V1 (Homo sapiens) | OR5W2 | OR6A2 (Homo sapiens) | OR6B1 | OR6B2 | OR6B3 | OR6C1
